# PubChem BioAssay AID1259254, NCATS, 2017
# Purpose: 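Genome-wide screen for genes that prevent DNA re-replication in cancer cells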 (primary screen)
# Cells: human HCT116 colorectal cancer cells
# Knock-down reagent: single siRNA against human genes
# Time to read-out: 3 days
# Measurement: 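Imaged Hoechst DNA stain sorts each cell into a cycle phase by DNA amount; per plate, G2 fraction set to 0% for non-targeting and 100% for GMNN siRNA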
# Scale: G2 robust z-score and G2 cells, % of GMNN control: higher = more G2 cells, more excess DNA replication; raw share of cells in G2: higher = larger share of cells with G2 DNA content
# Active means: 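An siRNA counts as active if its G2 robust z-score lies at least 5 MADs above the screen median; here such calls match roughly 38% of GMNN control or more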
# This is an unselected part of about 59,000 reagents. About 1,550 of all reagents (2.6%) count as active. 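G2 share is only a proxy for re-replication; each gene was hit by three separate siRNAs, and active genes were retested.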 Raw values vary from plate to plate and are shown uncorrected. Unmarked entries are inactive. Reagents against one gene are numbered here. Not stated in the record: the amount of reagent.
target gene,reagent,G2 robust z-score,"G2 cells, % of GMNN control",raw share of cells in G2 (%)
KCNG2,1,-0.224,1.39,5.8
KCNG2,2,-0.984,-3.96,3.44
KCNG2,3,2.62,21.4,12.7
SERPINF2 (serpin family F member 2),1,2.77,22.4,13.2
SERPINF2 (serpin family F member 2),2,-0.658,-1.66,3.59
SERPINF2 (serpin family F member 2),3,0.832,8.82,8.01
TTN (titin),1,-0.69,-1.89,4.8
TTN (titin),2,0.648,7.53,6.96
TTN (titin),3,-0.0184,2.84,5.32
OPRPN (opiorphin prepropeptide),1,-0.0583,2.56,5.35
OPRPN (opiorphin prepropeptide),2,2.63,21.5,14.7
OPRPN (opiorphin prepropeptide),3,2.82,22.8,10.3
TARBP2 (TARBP2 subunit of RISC loading complex),1,-0.576,-1.08,4.61
TARBP2 (TARBP2 subunit of RISC loading complex),2,-0.789,-2.58,3.69
TARBP2 (TARBP2 subunit of RISC loading complex),3,3.12,24.9,12.4
RBFOX3 (RNA binding fox-1 homolog 3),1,-0.752,-2.32,2.26
RBFOX3 (RNA binding fox-1 homolog 3),2,-0.46,-0.266,3.74
RBFOX3 (RNA binding fox-1 homolog 3),3,-0.702,-1.98,2.3
RBFOX3 (RNA binding fox-1 homolog 3),4,0.967,9.77,7.36
RBFOX3 (RNA binding fox-1 homolog 3),5,2.27,19,10.1
RBFOX3 (RNA binding fox-1 homolog 3),6,2.98,23.9,10.1
BIRC8 (baculoviral IAP repeat containing 8),1,0.251,4.74,7.87
BIRC8 (baculoviral IAP repeat containing 8),2,-1.07,-4.53,3.02
BIRC8 (baculoviral IAP repeat containing 8),3,-0.116,2.15,5.29
"ALG1L8P (ALG1 like 8, pseudogene)",1,1.7,14.9,9.31
"ALG1L8P (ALG1 like 8, pseudogene)",2,-0.848,-3,2.19
"ALG1L8P (ALG1 like 8, pseudogene)",3,0.182,4.25,4.38
ZNF10 (zinc finger protein 10),1,-0.425,-0.0249,3.52
ZNF10 (zinc finger protein 10),2,-1.4,-6.87,2.93
ZNF10 (zinc finger protein 10),3,-0.415,0.0442,3.36
SDC4 (syndecan 4),1,-0.822,-2.81,3.78
SDC4 (syndecan 4),2,-0.623,-1.41,3.66
SDC4 (syndecan 4),3,-0.453,-0.219,3.28
RFPL4B (ret finger protein like 4B),1,-0.0671,2.5,6.98
RFPL4B (ret finger protein like 4B),2,-0.129,2.06,5.76
RFPL4B (ret finger protein like 4B),3,0.603,7.21,6.92
ACP4 (acid phosphatase 4),1,-0.157,1.87,5.4
ACP4 (acid phosphatase 4),2,-0.536,-0.802,4.06
ACP4 (acid phosphatase 4),3,-0.693,-1.91,2.92
NDUFAF3 (NADH:ubiquinone oxidoreductase complex assembly factor 3),1,0.655,7.58,7.26
NDUFAF3 (NADH:ubiquinone oxidoreductase complex assembly factor 3),2,1.55,13.9,9.95
NDUFAF3 (NADH:ubiquinone oxidoreductase complex assembly factor 3),3,1.64,14.5,8.36
OR4K1 (olfactory receptor family 4 subfamily K member 1),1,0.478,6.33,7.34
OR4K1 (olfactory receptor family 4 subfamily K member 1),2,0.039,3.24,6.06
OR4K1 (olfactory receptor family 4 subfamily K member 1),3,-0.644,-1.56,2.29

Reformatted: results already given
target gene	reagent	G2 robust z-score	G2 cells, % of GMNN control	raw share of cells in G2 (%)
ALG1L8P (ALG1 like 8, pseudogene)	1	1.7	14.9	9.31
ALG1L8P (ALG1 like 8, pseudogene)	2	-0.848	-3	2.19
ALG1L8P (ALG1 like 8, pseudogene)	3	0.182	4.25	4.38
ZNF10 (zinc finger protein 10)	1	-0.425	-0.0249	3.52
ZNF10 (zinc finger protein 10)	2	-1.4	-6.87	2.93
ZNF10 (zinc finger protein 10)	3	-0.415	0.0442	3.36
SDC4 (syndecan 4)	1	-0.822	-2.81	3.78
SDC4 (syndecan 4)	2	-0.623	-1.41	3.66

Additional reagents follow:
target gene,reagent,G2 robust z-score,"G2 cells, % of GMNN control",raw share of cells in G2 (%)
SUZ12 (SUZ12 polycomb repressive complex 2 subunit),1,1.66,14.6,12.2
SUZ12 (SUZ12 polycomb repressive complex 2 subunit),2,1.63,14.4,8.99
SUZ12 (SUZ12 polycomb repressive complex 2 subunit),3,-0.353,0.481,4.03
TPH1 (tryptophan hydroxylase 1),1,-0.664,-1.71,4.88
TPH1 (tryptophan hydroxylase 1),2,7.58 (active),56.3,23
TPH1 (tryptophan hydroxylase 1),3,0.422,5.93,6.47
ZNF766 (zinc finger protein 766),1,0.512,6.57,5.35
ZNF766 (zinc finger protein 766),2,0.507,6.53,5.43
ZNF766 (zinc finger protein 766),3,-0.378,0.305,3.63
KLHL38 (kelch like family member 38),1,-1.05,-4.45,2.46
KLHL38 (kelch like family member 38),2,1.48,13.4,9.12
KLHL38 (kelch like family member 38),3,0.855,8.98,7.81
MAP7D2 (MAP7 domain containing 2),1,-0.772,-2.46,2.68
MAP7D2 (MAP7 domain containing 2),2,-0.711,-2.03,2.43
MAP7D2 (MAP7 domain containing 2),3,-0.08,2.4,3.96
LINC02870 (long independently transcribed non-coding RNA 2870),1,0.853,8.97,5.6
LINC02870 (long independently transcribed non-coding RNA 2870),2,-0.375,0.33,3.72
LINC02870 (long independently transcribed non-coding RNA 2870),3,0.306,5.12,4.68
C17orf75 (chromosome 17 open reading frame 75),1,-0.169,1.78,5.35
C17orf75 (chromosome 17 open reading frame 75),2,-0.633,-1.48,3.94
C17orf75 (chromosome 17 open reading frame 75),3,3.1,24.8,9.25
ITK (IL2 inducible T cell kinase),1,-0.111,2.19,4.8
ITK (IL2 inducible T cell kinase),2,2.04,17.4,11.3
ITK (IL2 inducible T cell kinase),3,-1.09,-4.67,3.84
CTSG (cathepsin G),1,0.0527,3.34,6.72
CTSG (cathepsin G),2,-0.381,0.284,5.01
CTSG (cathepsin G),3,-1.03,-4.29,2.31
FKBPL (FKBP prolyl isomerase like),1,-0.267,1.09,4.62
FKBPL (FKBP prolyl isomerase like),2,3.93,30.6,15.2
FKBPL (FKBP prolyl isomerase like),3,2.91,23.4,15.3
OR8H1 (olfactory receptor family 8 subfamily H member 1),1,1.08,10.6,7.4
OR8H1 (olfactory receptor family 8 subfamily H member 1),2,-0.928,-3.56,1.91
OR8H1 (olfactory receptor family 8 subfamily H member 1),3,-0.333,0.628,3.39
LY6G6F (lymphocyte antigen 6 family member G6F),1,1.55,13.9,8.71
LY6G6F (lymphocyte antigen 6 family member G6F),2,2.14,18,10
LY6G6F (lymphocyte antigen 6 family member G6F),3,-0.627,-1.44,2.83
DNAL4 (dynein axonemal light chain 4),1,-0.256,1.16,3.6
DNAL4 (dynein axonemal light chain 4),2,7.13 (active),53.1,26.3
DNAL4 (dynein axonemal light chain 4),3,2.12,17.9,12
YBX1P6 (Y-box binding protein 1 pseudogene 6),1,3.54,27.9,13.9
YBX1P6 (Y-box binding protein 1 pseudogene 6),2,-0.613,-1.34,2.98
YBX1P6 (Y-box binding protein 1 pseudogene 6),3,0.365,5.54,7.09
